This is an account of results in paper PMC2242833.

Sequences of proteins named here, by UniProt entry; tags and fusion partners are left off. Residues count along the entry.
UniProt Q95WZ4, residues 22-135: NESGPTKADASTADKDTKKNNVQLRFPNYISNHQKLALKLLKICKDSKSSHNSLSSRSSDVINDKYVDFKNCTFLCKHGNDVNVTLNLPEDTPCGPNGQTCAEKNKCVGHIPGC
UniProt Q9NNX6: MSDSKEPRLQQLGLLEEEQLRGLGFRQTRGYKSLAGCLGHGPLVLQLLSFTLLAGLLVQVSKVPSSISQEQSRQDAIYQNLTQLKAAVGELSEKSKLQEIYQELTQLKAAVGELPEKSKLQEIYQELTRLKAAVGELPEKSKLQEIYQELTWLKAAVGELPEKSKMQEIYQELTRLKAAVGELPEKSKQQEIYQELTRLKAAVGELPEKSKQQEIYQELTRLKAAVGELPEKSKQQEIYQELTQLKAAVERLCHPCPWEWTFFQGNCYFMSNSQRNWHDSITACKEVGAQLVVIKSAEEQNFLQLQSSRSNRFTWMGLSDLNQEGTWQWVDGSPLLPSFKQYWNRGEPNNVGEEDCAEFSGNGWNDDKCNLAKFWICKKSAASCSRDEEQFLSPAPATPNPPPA

In assay [1] the target is recombinant Salp15 (Ixodes scapularis salivary protein Salp15) containing the V5 epitope and HIS-tag (Ixodes scapularis) (UniProt Q95WZ4). Briefly: pull-down; Salp15 coupled via anti-V5 to protein A-Sepharose beads, incubated with lysate of immature DCs (cell-surface biotinylated or not; 10 mM triethanolamine pH 8.2, 150 mM NaCl, 1 mM MgCl2, 1 mM CaCl2, 1% Triton X-100); blot with streptavidin-peroxidase or goat anti-DC-SIGN; only the target purified.

Assay [2] has as its target DC-SIGN of immature human dendritic cells (human (endogenous in immature DCs)) (UniProt Q9NNX6). Briefly: condition: only with EDTA (10 mM) or mannan (1 mg/ml); flow cytometry on cells; fluorescent bead adhesion assay: streptavidin TransFluorSpheres with biotinylated goat anti-mouse F(ab)2, mouse anti-V5 and Salp15 (or gp120-coated beads); 50,000 cells (immature DCs, or Raji-DC-SIGN) with beads 45 min at 37 °C; where indicated cells pre-treated 15 min at 37 °C with mannan (1 mg/ml), EDTA (10 mM) or sugars; only the binder purified. (Flow cytometry measures light scatter and fluorescence of single cells or particles in a stream.)

The target of assay [3] is recombinant Salp15 (Ixodes scapularis salivary protein Salp15) containing the V5 epitope and HIS-tag (Ixodes scapularis) (UniProt Q95WZ4). The assay can be described thus: ELISA; plant lectin ELISA: Salp15 (5 μg/ml) coated on maxisorb plates 18 h at RT, blocked with 1% BSA, biotinylated lectins 5 μg/ml for 2 h, detected with peroxidase-labeled streptavidin; both purified.

These are yes or no findings as the source states them, for the method shown. For part of these data: Binding seen in cells or lysates may run through a third protein. Some results given as binding are weak or reduced against the parent protein; the word gives no strength.

With “DC-SIGN of immature human dendritic cells (from UniProt Q9NNX6 1-404) (receptor)”, the binding result in assay [1] was “binds”.
In the case of “recombinant Salp15 (Ixodes scapularis salivary protein Salp15) containing the V5 epitope and HIS-tag (from UniProt Q95WZ4 22-135)”, the binding entry in assay [2] was “no binding”.

B1: biotinylated Peanut agglutin (PNA) (protein, UniProt P02872 24-273)
chain: AETVSFNFNSFSEGNPAINFQGDVTVLSNGNIQLTNLNKVNSVGRVLYAMPVRIWSSATGNVASFLTSFSFEMKDIKDYDPADGIIFFIAPEDTQIPAGSIGGGTLGVSDTKGAGHFVGVEFDTYSNSEYNDPPTDHVGIDVNSVDSVKTVPWNSVSGAVVKVTVIYDSSTKTLSVAVTNDNGDITTIAQVVDLKAKLPERVKFGFSASGSLGGRQIHLIRSWSFTSTLITTTRRSIDNNEKKIMNMASA
modifications: biotin
Consider B1, for which, in assay [3], the binding entry is reported as “binds”.
